# “And” between values parts separate entries of the source, which are not always exact repeats. Equal values may be shown once. In all, about 300,000 compounds went through this assay and about 3,700 (1.2%) were called active. The shares of active, inactive and inconclusive entries below differ from those in the screen. Calls come from the whole dose curve; tested in HEK293 cells. A potency beside an inconclusive call is a rough fit, not a confirmed value.
# Assay: qHTS for Inhibitors of binding or entry into cells for Lassa Virus; note: nearly all actives have a fitted effect of over 50% in size
# Conditions: Lassa virus pseudotype entry inhibition, cell reporter; activity change, negative = inhibition: at 37.9 µM (top of the series) unless noted
# % is set by controls: 0 for no effect and ±100 for the full control effect; potency is the fitted concentration of half-maximal effect.
Compound,"activity change, negative = inhibition",Potency
CCOC(=O)C1(Cc2cccc(Cl)c2)CCCN(C(=O)c2cc(C(C)C)nn2C)C1 (stereo unspecified),inactive: -7.66%,
CCOC(=O)c1ccc(NC(=S)N(Cc2cccnc2)Cc2ccco2)cc1,inactive: -1.9%,
C=CS(=O)(=O)N[C@H](C)c1ccccc1,,"inconclusive: 0.995 µM [inhibitor, full curve, poor fit]"
N#Cc1ccc(S(=O)(=O)N2CCCN(c3ccc(C(F)(F)F)cn3)CC2)cc1,,"inconclusive: 5.62 µM [inhibitor, single point]"
CC[n+]1c(/C=C/N(C)c2ccccc2)sc2ccc(Cl)cc21,,"inconclusive: 10.3 µM [inhibitor, partial curve]"
Cc1cccc(-n2c(N)c(-c3nc4ccccc4n3C)c3nc4ccccc4nc32)c1,,"inconclusive: 35.5 µM [inhibitor, partial curve, poor fit]"
CC1=C(C(=O)Nc2ccc(C)cc2)C(c2ccccc2Cl)n2nnnc2N1 (stereo unspecified),,"inconclusive: 6.31 µM [inhibitor, full curve]"
O=C(CCl)N1CCN(C(=O)C2COc3ccccc3O2)CC1 (stereo unspecified),,"inconclusive: 31.6 µM [inhibitor, single point]"
Cc1ccc(NC(=O)c2cc(-c3ccc4c(c3)OCO4)on2)cc1,,"inconclusive: 3.16 µM [activator, full curve, poor fit]"
CCOC(=O)c1c(C)c(C(=O)N2CCc3ccccc3C2)c(C)n1CC,,"inconclusive: 20.6 µM [inhibitor, single point]"
O=C(OCc1cc([N+](=O)[O-])cc2c1OCOC2)c1ccccn1,inactive: -2.12%,
Cc1cccc(C)c1-n1c(C)cc(/C=N/NC(N)=S)c1C,,"inconclusive: 22.4 µM [inhibitor, single point]"
Cc1ccccc1OCc1nnc(SCC(=O)O)n1Cc1ccccc1,inactive: 3.71%,
O=C(CCl)Nc1ccccc1C(=O)Nc1ccc2c(c1)OCO2,,"inconclusive: 35.5 µM [inhibitor, single point]"
COc1ccc(C(=O)/C=C/c2ccc(O)cc2)c(O)c1CC=C(C)C,,"inconclusive: 13 µM [inhibitor, partial curve, poor fit]"
O=C(COC(=O)c1ccccc1NC(=O)c1ccco1)NCCC1=CCCCC1,,"inconclusive: 4.47 µM [activator, full curve, poor fit]"
COCCCNC(=O)CN1C(=O)c2c(c3ccccc3n2C)C1c1ccc(OC)cc1 (stereo unspecified),inactive: -1.32% [at 46.1 µM],
COc1cccc(/C=C/c2nc(C#N)c(N(C)Cc3ccccc3)o2)c1,,"inconclusive: 20 µM [inhibitor, single point]"
C=CCc1cc(C=C2C(=O)N(C)C(=O)N(C)C2=O)cc(OCC)c1OCc1ccccc1,inactive: 3.21%,
CC1=C(C)/C(=N\OS(=O)(=O)c2ccccc2)C=CC1=O,,"inconclusive: 35.5 µM [inhibitor, single point]"
COc1ccc(CCNc2nc(C)c(C(C)=O)s2)cc1OC,inactive: 9.88% [at 46.1 µM],
CCCC(C)NC(=O)c1ccc(F)cc1 (stereo unspecified),inactive: 1.68%,

Compound,"activity change, negative = inhibition",Potency
CC(Sc1ccccc1)C(=O)N(CCC#N)Cc1cccnc1 (stereo unspecified),inactive: 11.1%,
COc1ccc(N(CC(=O)N/N=C/c2ccccc2OC)S(=O)(=O)c2ccccc2)cc1,inactive: 1.42%,
CCC1CCCCN1C(=O)CSc1nc2c(c(=O)n(C)c(=O)n2C)n1C (stereo unspecified),,"inconclusive: 7.08 µM [inhibitor, partial curve, poor fit]"
O=C(Nc1ncn[nH]1)c1c(Cl)ccc(Cl)c1Cl,,"inconclusive: 31.6 µM [activator, partial curve, poor fit]"
O=C1COc2ccc(C(=O)COC(=O)Cc3ccsc3)cc2N1,inactive: -10.5%,
CCc1cc(-c2n[nH]c(=S)n2C(C)c2ccccc2)cs1 (stereo unspecified),,"inconclusive: 20.6 µM [inhibitor, single point]"
CC1(C)Cc2c(cnn2-c2ccccc2)C(=O)/C1=N\NC(=O)c1ccncc1,,"inconclusive: 0.082 µM [activator, partial curve, poor fit]"
Cn1c(SCC(=O)NNC(=O)c2ccccc2O)nnc1-c1ccccc1,,"inconclusive: 35.5 µM [inhibitor, single point]"
CN(C(=O)CS(=O)(=O)c1cn(CC(=O)N2CCCCC2)c2ccccc12)c1ccccc1,,"inconclusive: 6.31 µM [activator, partial curve]"
COc1ccc(C(=O)C(CN2CCCC2)c2ccccc2)cc1 (stereo unspecified),,"inconclusive: 11.2 µM [inhibitor, partial curve, poor fit]"
COc1cccc(NC(=O)c2cc(CN3CCOCC3)on2)c1,,"inconclusive: 14.1 µM [activator, partial curve, poor fit]"
CCc1cc2c3c([nH]c2cc1S(=O)(=O)N1CCC2(CC1)OCCO2)CCCC3=O,,"inconclusive: 11.2 µM [inhibitor, partial curve, poor fit]"
COc1ccc(OC)c(N(CC(=O)N2CCOCC2)S(C)(=O)=O)c1,inactive: -0.718%,
O=C(NC(=S)Nc1ccccc1O)c1ccccc1Cl,inactive: -26.6%,
N#Cc1c(Nc2ccccc2)sc(C(=O)c2ccc(F)cc2)c1N,,"inconclusive: 14.6 µM [inhibitor, partial curve]"
Cc1ccccc1N(CC(=O)N/N=C/c1cc(Br)c(C)o1)S(C)(=O)=O,,"inconclusive: 16.4 µM [activator, partial curve, poor fit]"
COc1ccc(-c2csc(N(CCCN3CCOCC3)C(=O)c3ccco3)n2)cc1,,"inconclusive: 20.6 µM [inhibitor, single point]"
O=C(NC(Cc1ccccc1)C(=O)O)C1CCN(S(=O)(=O)c2cccc(C(F)(F)F)c2)CC1 (stereo unspecified),,"inconclusive: 6.31 µM [activator, partial curve, poor fit]"
O=C(/C=C\c1ccco1)Oc1cccc2cccnc12,inactive: 26.8%,
COCCCn1c(-c2ccc(OC)cc2)nc2c1c(=O)[nH]c(=O)n2Cc1ccccc1,,"inconclusive: 2.51 µM [inhibitor, full curve, poor fit]"
COc1cccc2[nH]c3c(N4CCc5ccccc5C4)ncnc3c12,,"inconclusive: 5.62 µM [inhibitor, single point]"
CCCCN(C)C(=O)Cc1c(OC)ccc2cc(Br)ccc12,,"inconclusive: 6.31 µM [inhibitor, single point]"

# 4 entries picked at random from those above:
Compound,"activity change, negative = inhibition",Potency
O=C1COc2ccc(C(=O)COC(=O)Cc3ccsc3)cc2N1,inactive: -10.5%,
O=C(NC(=S)Nc1ccccc1O)c1ccccc1Cl,inactive: -26.6%,
COc1ccc(OC)c(N(CC(=O)N2CCOCC2)S(C)(=O)=O)c1,inactive: -0.718%,
CCC1CCCCN1C(=O)CSc1nc2c(c(=O)n(C)c(=O)n2C)n1C (stereo unspecified),,"inconclusive: 7.08 µM [inhibitor, partial curve, poor fit]"

# More compounds follow:

Compound,"activity change, negative = inhibition",Potency
COc1ccccc1C1C=C(c2ccc(C)cc2)Nc2nnnn21 (stereo unspecified),inactive: -24.1%,
CCc1ccc(NC(=O)CSC2=Nc3ccccc3C3=NC(CCC(=O)NCc4cccs4)C(=O)N23)cc1 (stereo unspecified),inactive: -10.4% [at 46.1 µM],
Cc1cccc(-n2ccnc2SCC(=O)Nc2ccccc2C(F)(F)F)c1,,"inconclusive: 28.2 µM [inhibitor, single point]"
CN(C)S(=O)(=O)c1cccc(NC(=O)CSc2ncnc3ccccc23)c1,,"inconclusive: 22.4 µM [inhibitor, single point]"
O=c1c2c(nc3n1CCCCC3)sc1c(O)cccc12,,"inconclusive: 8.91 µM [inhibitor, partial curve, poor fit]"
COc1cccc(N2CCN(S(=O)(=O)c3ccc(-c4cnc(C5CC5)o4)cc3)CC2)c1,,"inconclusive: 6.31 µM [inhibitor, single point]"
COc1ccc(-c2cnc(SCC(=O)Nc3ccc4c(c3)OCO4)n2Cc2ccco2)cc1,,"inconclusive: 17.8 µM [inhibitor, partial curve, poor fit]"
Cc1ccc(-c2nnc(Nc3ccc(C(N)=O)cc3)c3ccccc23)cc1S(=O)(=O)N1CCCCC1,,"inconclusive: 11.2 µM [inhibitor, single point]"
COc1ccc(CCNC(=O)c2ccc(CS(=O)(=O)c3ccc(C)cc3)o2)cc1OC,,"inconclusive: 1.46 µM [inhibitor, full curve, poor fit] and inconclusive: 10 µM [inhibitor, partial curve, poor fit]"
COc1ccc(C)cc1NC(=O)CN(c1ccc(C)cc1)S(C)(=O)=O,,"inconclusive: 35.5 µM [inhibitor, single point]"
Nc1nn2c(-c3ccccc3)cc(=O)[nH]c2c1N=Nc1ccc(O)cc1,,"inconclusive: 12.6 µM [inhibitor, partial curve, poor fit]"
O=C(Nc1c(C(=O)N2CCN(c3ccc(F)cc3)CC2)oc2ccccc12)c1ccco1,,"inconclusive: 35.5 µM [inhibitor, single point]"
COc1ccc(NC(=O)c2c(C)oc3ccc(O)c(CN4CCN(C)CC4)c23)cc1Cl,,"inconclusive: 35.5 µM [inhibitor, single point]"
Cc1csc(NC(=O)c2cnc3ccccc3n2)n1,,"inconclusive: 6.31 µM [inhibitor, full curve, poor fit]"
Cc1ccc(Cl)cc1N1CCN(C(=O)Cc2csc(Nc3nc(=S)[nH]c4ccccc34)n2)CC1,inactive: -0.135%,
Cc1ccc(Cl)cc1NC(=O)c1oc2ccc(S(=O)(=O)N3CCC4(CC3)OCCO4)cc2c1C,inactive: 1.32% [at 46.1 µM],
CC1=NOC(=O)/C1=C/c1ccc(N(C)C)cc1,inactive: -4.72%,
c1csc(-c2nc(N3CCCCC3)no2)c1,,"inconclusive: 1 µM [activator, full curve, poor fit]"
CCOC(=O)Cc1csc(NC(=S)NC(=O)c2ccccc2)n1,inactive: 0.47%,
CNCCc1cnc(CCC(c2ccccc2)c2ccccc2)[nH]1,,"inconclusive: 20.6 µM [inhibitor, single point]"
Clc1ccc(-c2nnc(-c3ccc4ccccc4c3)o2)cc1,,"inconclusive: 2.82 µM [activator, partial curve, poor fit]"
Cc1cccc(N2C(=O)CC(SC(=Nc3ccccc3)Nc3ccccc3)C2=O)c1 (stereo unspecified),,"inconclusive: 35.5 µM [inhibitor, single point]"

# Source: PubChem BioAssay AID540256 (National Center for Advancing Translational Sciences (NCATS), 2011)
